Assay results reported in patent publication KR20120084755A.
No constants are given. Whether binding was seen depends on the method and setting. Some binding calls cover weakened binding; strength is not graded here.

By UniProt entry, the sequences of proteins in these tests, tags left out. Residues count along the entry.
UniProt P03420, residues 26-524: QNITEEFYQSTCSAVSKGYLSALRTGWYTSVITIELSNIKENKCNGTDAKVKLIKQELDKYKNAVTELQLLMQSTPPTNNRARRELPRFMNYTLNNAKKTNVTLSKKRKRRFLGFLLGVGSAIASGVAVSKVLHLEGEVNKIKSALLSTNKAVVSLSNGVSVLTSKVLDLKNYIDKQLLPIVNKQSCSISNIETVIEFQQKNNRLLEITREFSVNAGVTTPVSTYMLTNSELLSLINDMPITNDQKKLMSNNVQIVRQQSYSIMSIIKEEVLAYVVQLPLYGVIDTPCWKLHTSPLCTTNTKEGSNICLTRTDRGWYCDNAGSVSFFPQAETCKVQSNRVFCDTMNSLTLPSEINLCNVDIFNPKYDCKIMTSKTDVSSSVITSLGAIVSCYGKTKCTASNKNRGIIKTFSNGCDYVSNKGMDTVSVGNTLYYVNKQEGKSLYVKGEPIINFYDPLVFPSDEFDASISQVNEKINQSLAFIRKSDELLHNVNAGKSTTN

Target: RSV A2 F 삼량체 (ILZ-8xHIS에 융합된 F 단백질) (Respiratory Syncytial Virus (RSV), strain A2) (UniProt P03420)
Assay: intracellular staining (FACS) of 293T cells transfected with the F-ILZ-8xHIS construct (Fig. 3d)

B1: AM22 (antibody, V domains shown)
VH: QVQLVQSGAEVKKPGATVKVSCKISGHTLIKLSIHWVRQAPGKGLEWMGGYEGEVDEIFYAQKFQHRLTVIADTATDTVYMELGRLTSDDTAVYFCGTLGVTVTEAGLGIDDYWGQGTLVTVSS
VL: EIVLTQSPGTLSLSPGERATLSCRASQIVSRNHLAWYQQKPGQAPRLLIFGASSRATGIPVRFSGSGSGTDFTLTINGLAPEDFAVYYCLSSDSSIFTFGPGTKVDFK
  binding: binds
